Results reported in US20250352662A1.
No constants are given. Whether binding was seen depends on the method and setting. Some results given as binding are weak or reduced against the parent protein; the word gives no strength.

The chains behind the UniProt entries cited, without tags or fusion partners. Where a name states a change or a piece, a line headed by the entry shows the natural chain unless it says otherwise.
UniProt O95436: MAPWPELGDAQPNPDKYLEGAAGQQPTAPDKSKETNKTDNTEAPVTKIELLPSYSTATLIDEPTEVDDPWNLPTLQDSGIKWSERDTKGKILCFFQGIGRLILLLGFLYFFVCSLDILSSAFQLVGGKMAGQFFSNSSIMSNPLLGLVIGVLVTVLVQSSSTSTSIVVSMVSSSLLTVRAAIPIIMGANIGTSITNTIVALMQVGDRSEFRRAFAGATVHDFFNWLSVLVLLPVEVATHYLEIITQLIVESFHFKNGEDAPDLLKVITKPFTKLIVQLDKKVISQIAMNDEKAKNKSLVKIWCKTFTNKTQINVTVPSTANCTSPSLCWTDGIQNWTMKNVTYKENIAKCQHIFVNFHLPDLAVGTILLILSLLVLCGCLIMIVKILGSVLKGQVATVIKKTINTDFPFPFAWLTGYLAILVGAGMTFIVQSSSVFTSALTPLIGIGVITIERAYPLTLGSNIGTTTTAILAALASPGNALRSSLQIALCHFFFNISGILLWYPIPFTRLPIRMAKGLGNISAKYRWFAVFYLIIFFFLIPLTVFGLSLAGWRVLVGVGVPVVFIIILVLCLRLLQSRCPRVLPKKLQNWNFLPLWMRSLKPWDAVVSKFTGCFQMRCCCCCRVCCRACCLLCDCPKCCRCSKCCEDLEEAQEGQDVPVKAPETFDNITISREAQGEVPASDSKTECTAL

Target: human NaPi2b on OVCAR3 human ovarian cancer cells (human) (UniProt O95436)
Assay: flow cytometry on OVCAR3 cells

B1: XMT-1535 mIgG2a Conjugate 32d, DAR 8.8 (antibody, V domains shown)
VH: QVQLVQSGAEVVKPGASVKMSCKASGYTFTGYNIHWVKQAPGQGLEWIGAIYPGNGDTSYKQKFRGRATLTADTSTSTVYMELSSLRSEDSAVYYCARGETARATFAYWGQGTLVTVSSG
VL: DIQMTQSPSSLSASVGDRVTITCSASQDIGNFLNWYQQKPGKTVKVLIYYTSSLYSGVPSRFSGSGSGTDYTLTISSLQPEDFATYYCQQYSKLPLTFGQGTKLELKR
  binding: binds
